Measured values taken from PubChem BioAssay AID328 (DTP/NCI, 2004).
The list does not hold the whole screen: it gathers tests that were run many times, whatever their T/C, doses with no T/C, and many T/C values between a quarter and a half above the control. Further doses and runs are listed elsewhere. T/C is the treated group as % of the vehicle group. Some doses have a count of surviving animals in place of a T/C: the source holds a T/C of zero for them, seemingly a mark for toxic or unscored doses. Some survivor counts are full or nearly so, which does not show that the dose was tolerated: survival well below the control is almost never listed, so the zero probably covers shortened survival too. Counts of survivors are from the toxicity check (mostly the fifth day) where no day follows; animals may have died later. Schedule codes are those of the source, read here as Q, the interval in days (D) or hours (H), X, the number of doses. Some schedule codes hold Z or #, which are not explained here. For survival time, this PubChem deposit counts one and a half times the control or more as active, and values a quarter to a half above the control carry no call in these data; other NCI protocols may use other cut-offs. Some doses were run more than once; their values stand side by side, smallest first. Some T/C values carry the count of animals alive at the toxicity check (mostly the fifth day); where none is given, no animal had died by that day.

Test system: BDF1 mice, P388 leukemia ip, median survival T/C
Assay: NCI In Vivo Anticancer Drug Screen. Data for tumor model P388 Leukemia (intraperitoneal) in B6D2F1 (BDF1) mice
Settings: T/C endpoint: median survival time, higher T/C = longer survival
Outline: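 Survival ratio, drug arm over vehicle arm, in mice with a transplanted tumour.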

[1] = dose: 2.0 mg/kg/injection, schedule: Q01DX009 (ip), vehicle: other
[2] = dose: 400.0 mg/kg/injection, schedule: Q04DX003 (ip), vehicle: other
[3] = dose: 200.0 mg/kg/injection, schedule: Q01DX009 (ip), vehicle: saline with Tween-80
[4] = dose: 400.0 mg/kg/injection, schedule: Q04DX003 (ip), vehicle: saline with Tween-80
[5] = dose: 50.0 mg/kg/injection, schedule: Q01DX009 (ip), vehicle: Klucel (hydroxypropylcellulose) (HPC)
[6] = dose: 100.0 mg/kg/injection, schedule: Q01DX009 (ip), vehicle: saline with Tween-80
[7] = dose: 400.0 mg/kg/injection, schedule: Q01DX009 (ip), vehicle: saline with Tween-80
[8] = dose: 100.0 mg/kg/injection, schedule: Q01DX009 (ip), vehicle: Klucel (hydroxypropylcellulose) (HPC)
[9] = dose: 100.0 mg/kg/injection, schedule: Q04DX003 (ip), vehicle: Klucel (hydroxypropylcellulose) (HPC)
[10] = dose: 5.0 mg/kg/injection, schedule: Q01DX009 (ip), vehicle: Klucel (hydroxypropylcellulose) (HPC)

CCC[CH2][Sn](=[S])[CH2]CCC
T/C (dose: 0.88 mg/kg/injection, schedule: Q01DX009 (ip), vehicle: other): 127 % of control | T/C (dose: 1.3 mg/kg/injection, schedule: Q01DX009 (ip), vehicle: other): 126 % of control | T/C [1]: 128 % of control | survivor count [1]: 6 of 6 | survivor count (dose: 3.0 mg/kg/injection, schedule: Q01DX009 (ip), vehicle: other): 6 of 6 | survivor count (dose: 4.0 mg/kg/injection, schedule: Q04DX003 (ip), vehicle: other): 5 of 6 | survivor count (dose: 4.5 mg/kg/injection, schedule: Q01DX009 (ip), vehicle: other): 2 of 6 | survivor count (dose: 6.0 mg/kg/injection, schedule: Q04DX003 (ip), vehicle: other): 6 of 6 | survivor count (dose: 9.0 mg/kg/injection, schedule: Q04DX003 (ip), vehicle: other): 1 of 6 | T/C (dose: 50.0 mg/kg/injection, schedule: Q01DX010 (ip), vehicle: carboxymethylcellulose (CMC)): 135 % of control | survivor count (dose: 100.0 mg/kg/injection, schedule: Q01DX010 (ip), vehicle: carboxymethylcellulose (CMC)): 5 of 6 | survivor count (dose: 100.0 mg/kg/injection, schedule: Q04DX003 (ip), vehicle: other): 0 of 6 | survivor count (dose: 200.0 mg/kg/injection, schedule: Q04DX003 (ip), vehicle: other): 0 of 6 | survivor count (dose: 400.0 mg/kg/injection, schedule: Q01DX010 (ip), vehicle: carboxymethylcellulose (CMC)): 6 of 6 | survivor count [2]: 0 of 6

O=S(=O)(CCBr)CCBr
survivor count [3]: 5 of 6 | survivor count [4]: 0 of 6

[Cl][Rh][Cl].c1cn[nH]c1.c1cn[nH]c1.c1cn[nH]c1.c1cn[nH]c1
survivor count [5]: 4 of 6

C=C(C)C12OC3(c4ccccc4)OC1C1C4OC4(CO)C(O)C4(O)C(=O)C(C)=CC4C1(O3)C(C)C2OC(=O)/C=C/C=C/C=C/CCC (stereo unspecified)
survivor count (dose: 200.0 micrograms/kg/injection, schedule: Q## X009 (ip), vehicle: saline with Tween-80): 6 of 6 | survivor count (dose: 400.0 micrograms/kg/injection, schedule: Q## X009 (ip), vehicle: saline with Tween-80): 5 of 6

CCOC(=O)C1(c2ccccc2)CCCN(C)CC1 (stereo unspecified)
survivor count (dose: 200.0 mg/kg/injection, schedule: Q04DX003 (ip), vehicle: saline): 1 of 6 | survivor count (dose: 400.0 mg/kg/injection, schedule: Q04DX003 (ip), vehicle: saline): 1 of 6

CCNc1cc(Cl)nc(N)n1
survivor count [6]: 6 of 6 | survivor count [3]: 6 of 6 | survivor count [7]: 5 of 6

CC(=O)OCC(=O)[C@@]12OC(C)(C)O[C@@H]1C[C@H]1[C@@H]3CC(C=O)=C4C=C(OCCCl)CC[C@]4(C)[C@@]3(F)[C@@H](O)C[C@@]12C
survivor count (dose: 6.25 mg/kg/injection, schedule: Q01DX009 (ip), vehicle: Klucel (hydroxypropylcellulose) (HPC)): 6 of 6 | survivor count (dose: 12.5 mg/kg/injection, schedule: Q01DX009 (ip), vehicle: Klucel (hydroxypropylcellulose) (HPC)): 6 of 6 | T/C (dose: 21.0 mg/kg/injection, schedule: Q04DX003 (ip), vehicle: Klucel (hydroxypropylcellulose) (HPC)): 125 % of control | survivor count (dose: 25.0 mg/kg/injection, schedule: Q01DX009 (ip), vehicle: Klucel (hydroxypropylcellulose) (HPC)): 6 of 6 | survivor count [5]: 5 of 6 | survivor count [8]: 6 of 6 | T/C (dose: 160.0 mg/kg/injection, schedule: Q04DX003 (ip), vehicle: Klucel (hydroxypropylcellulose) (HPC)): 130 % of control | T/C (dose: 240.0 mg/kg/injection, schedule: Q04DX003 (ip), vehicle: Klucel (hydroxypropylcellulose) (HPC)): 135 % of control

Cc1ccc(C)c(CN(C)C)c1O
survivor count [9]: 6 of 6 | survivor count (dose: 200.0 mg/kg/injection, schedule: Q04DX003 (ip), vehicle: Klucel (hydroxypropylcellulose) (HPC)): 3 of 6 | survivor count (dose: 400.0 mg/kg/injection, schedule: Q04DX003 (ip), vehicle: Klucel (hydroxypropylcellulose) (HPC)): 2 of 6

CCC(C)(C)c1ccc(Oc2ccccc2)c(N)c1
survivor count [2]: 6 of 6

CC1=CC(=O)c2c(O)cc(C)c(C(=O)C(Cl)Cl)c2C1=O
survivor count (dose: 40.0 mg/kg/injection, schedule: Q01DX009 (ip), vehicle: Klucel (hydroxypropylcellulose) (HPC)): 4 of 6

CNc1ccc2c(c1)C(=O)c1c(C)n(C)c3cccc-2c13
survivor count (dose: 50.0 mg/kg/injection, schedule: Q01DX005 (ip), vehicle: saline with Tween-80): 6 of 6

COC(=O)c1c(C)cc(OC(=O)c2c(C)c(Cl)c(O)c(Cl)c2O)cc1O
survivor count (dose: 1.25 mg/kg/injection, schedule: Q01DX009 (ip), vehicle: Klucel (hydroxypropylcellulose) (HPC)): 6 of 6 | survivor count (dose: 2.5 mg/kg/injection, schedule: Q01DX009 (ip), vehicle: Klucel (hydroxypropylcellulose) (HPC)): 6 of 6 | T/C [10]: 126 % of control | survivor count [10]: 6 of 6

COC(=O)c1cc([N+](=O)[O-])c(Cl)c([N+](=O)[O-])c1
survivor count [9]: 3 of 6

NC(=O)NOCC1NC(=O)C(CONC(N)=O)NC1=O (stereo unspecified)
survivor count (dose: 200.0 mg/kg/injection, schedule: Q01DX009 (ip), vehicle: saline): 6 of 6

c1cc2c(c(NC3=NCCO3)c1)CCCC2
survivor count (dose: 300.0 mg/kg/injection, schedule: Q01DX009 (ip), vehicle: saline with Tween-80): 3 of 6

Cc1ncc([N+](=O)[O-])n1CCSC(=N)N
survivor count [4]: 1 of 6

CC(=O)N1c2ccccc2C23CCN4CC5=CCOC(O)C(C5CC42)C13 (stereo unspecified)
T/C (dose: 15.0 mg/kg/injection, schedule: Q01DX009 (ip), vehicle: saline): 136 % of control | T/C (dose: 60.0 mg/kg/injection, schedule: Q01DX009 (ip), vehicle: saline): 136 % of control

O=C1c2ccccc2C(=O)C(Cl)C1Cl (stereo unspecified)
survivor count (dose: 12.5 mg/kg/injection, schedule: Q01DX009 (ip), vehicle: saline with Tween-80): 0 of 6

O=C(O)C1(NO)CCCC1
survivor count (dose: 400.0 mg/kg/injection, schedule: Q01DX009 (ip), vehicle: saline): 0 of 6

CC12CCC3C4CCC(=O)C(O)=C4CCC3C1CCC2OC(=O)CCC1CCCC1 (stereo unspecified)
survivor count (dose: 200.0 mg/kg/injection, schedule: Q04DX003 (sc), vehicle: steroid suspending solution): 6 of 6

O=CN(SSN(C=O)C1CCCCC1)C1CCCCC1
T/C [6]: 130 % of control | T/C [3]: 131 and 138 % of control | T/C [7]: 142 % of control

O=c1cc(-c2ccccc2)ss1
T/C (dose: 25.0 mg/kg/injection, schedule: Q01DX009 (ip), vehicle: saline with Tween-80, evaluated on day 30): 139 % of control | T/C (dose: 25.0 mg/kg/injection, schedule: Q01DX009 (ip), vehicle: saline with Tween-80, evaluated on day 35): 135 % of control | T/C (dose: 200.0 mg/kg/injection, schedule: Q04DX003 (ip), vehicle: saline with Tween-80): 133 % of control [5 of 6 alive] | T/C [2]: 140 % of control [4 of 6 alive] | survivor count [2]: 3 of 6 | survivor count [4]: 2 of 6

Cc1ccc(S(=O)(=O)N2CCC(=O)c3ccc(Cl)cc32)cc1
survivor count [8]: 4 of 6

CC(=O)CC(C)=O.CC(=O)CC(C)=O.Cc1nccn1C.O=N[O-].[Co]
T/C (dose: 200.0 mg/kg/injection, schedule: Q04DX002 (ip), vehicle: saline with Tween-80): 127 % of control | survivor count (dose: 400.0 mg/kg/injection, schedule: Q04DX002 (ip), vehicle: saline with Tween-80): 6 of 6

CC1(C)N=C(N)N=C(N)N1c1cccc(CCCCc2cccc(S(=O)(=O)F)c2)c1
T/C (dose: 3.0 mg/kg/injection, schedule: Q04DX003 (ip), vehicle: saline): 127 % of control | T/C (dose: 6.0 mg/kg/injection, schedule: Q04DX003 (ip), vehicle: saline): 131 % of control [5 of 6 alive]
